Laboratory results: PubChem BioAssay AID1259254 (NCATS, 2017)
Shown is a random part of about 59,000 reagents tested. About 1,550 of them (2.6%) were called active. 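G2 share is only a proxy for re-replication; each gene was hit by three separate siRNAs, and active genes were retested.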 A number with no mark means an inactive call. Reagents against one gene are numbered here. Further read-outs or replicates are left out here. No sequences are given here. Not stated in the record: the amount of reagent.

- Purpose: 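Finding genes that stop cells copying their DNA twice in one cycle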 (primary screen)
- System: human HCT116 colorectal cancer cells
- Reagents: single siRNA against human genes
- Time to read-out: 3 days
- Measurement: 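Nuclei stained with Hoechst and imaged; cell-cycle phase assigned by DNA content; G2 share scaled per plate, non-targeting siRNA 0%, GMNN siRNA 100%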
- Scale: G2 robust z-score and G2 cells, % of GMNN control: higher = more G2 cells, more excess DNA replication
- Call rule: 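An siRNA counts as active if its G2 robust z-score lies at least 5 MADs above the screen median; here such calls match roughly 38% of GMNN control or more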

POLE2 #1
- G2 robust z-score: -1.04
- G2 cells, % of GMNN control: -4.34

POLE2 #2
- G2 robust z-score: -0.401
- G2 cells, % of GMNN control: 0.146

POLE2 #3
- G2 robust z-score: -0.437
- G2 cells, % of GMNN control: -0.108

GZMA #1
- G2 robust z-score: -0.423
- G2 cells, % of GMNN control: -0.0095

GZMA #2
- G2 robust z-score: 9.27 (active)
- G2 cells, % of GMNN control: 68.2

GZMA #3
- G2 robust z-score: -0.17
- G2 cells, % of GMNN control: 1.77

TMEM65 #1
- G2 robust z-score: -0.147
- G2 cells, % of GMNN control: 1.93

TMEM65 #2
- G2 robust z-score: -0.85
- G2 cells, % of GMNN control: -3.02

TMEM65 #3
- G2 robust z-score: 1.57
- G2 cells, % of GMNN control: 14

TPH2 #1
- G2 robust z-score: 1.88
- G2 cells, % of GMNN control: 16.2

TPH2 #2
- G2 robust z-score: -1.27
- G2 cells, % of GMNN control: -5.98

TPH2 #3
- G2 robust z-score: 0.245
- G2 cells, % of GMNN control: 4.69

ZNF595 #1
- G2 robust z-score: -0.3
- G2 cells, % of GMNN control: 0.857

ZNF595 #2
- G2 robust z-score: -0.747
- G2 cells, % of GMNN control: -2.29

ZNF595 #3
- G2 robust z-score: 4.89
- G2 cells, % of GMNN control: 37.4

SGSH #1
- G2 robust z-score: -1.37
- G2 cells, % of GMNN control: -6.68

SGSH #2
- G2 robust z-score: -0.974
- G2 cells, % of GMNN control: -3.89

SGSH #3
- G2 robust z-score: -1.02
- G2 cells, % of GMNN control: -4.19

ACTL6B #1
- G2 robust z-score: -1.08
- G2 cells, % of GMNN control: -4.6

ACTL6B #2
- G2 robust z-score: -0.867
- G2 cells, % of GMNN control: -3.14

ACTL6B #3
- G2 robust z-score: -0.646
- G2 cells, % of GMNN control: -1.58

IL4R #1
- G2 robust z-score: -0.902
- G2 cells, % of GMNN control: -3.38

IL4R #2
- G2 robust z-score: -0.395
- G2 cells, % of GMNN control: 0.19

IL4R #3
- G2 robust z-score: -0.157
- G2 cells, % of GMNN control: 1.86
